Source: PubChem BioAssay AID2267 (National Center for Advancing Translational Sciences (NCATS), 2010)
The shares of active, inactive and inconclusive entries below differ from those in the screen. Potencies beside an inconclusive call are fits to weak or partial responses and may not hold up. Active and inactive are the calls of the source. Calls follow the shape of the dose curve; as a rule, active = well fitted inhibition curve with a large enough effect; inconclusive = small, poorly fitted or top-dose-only effect, or effect the other way; inactive = flat fitted curve, though single readings scatter.

By UniProt entry, the sequences of proteins in these tests, tags left out.
UniProt P14618, whole entry, looked up: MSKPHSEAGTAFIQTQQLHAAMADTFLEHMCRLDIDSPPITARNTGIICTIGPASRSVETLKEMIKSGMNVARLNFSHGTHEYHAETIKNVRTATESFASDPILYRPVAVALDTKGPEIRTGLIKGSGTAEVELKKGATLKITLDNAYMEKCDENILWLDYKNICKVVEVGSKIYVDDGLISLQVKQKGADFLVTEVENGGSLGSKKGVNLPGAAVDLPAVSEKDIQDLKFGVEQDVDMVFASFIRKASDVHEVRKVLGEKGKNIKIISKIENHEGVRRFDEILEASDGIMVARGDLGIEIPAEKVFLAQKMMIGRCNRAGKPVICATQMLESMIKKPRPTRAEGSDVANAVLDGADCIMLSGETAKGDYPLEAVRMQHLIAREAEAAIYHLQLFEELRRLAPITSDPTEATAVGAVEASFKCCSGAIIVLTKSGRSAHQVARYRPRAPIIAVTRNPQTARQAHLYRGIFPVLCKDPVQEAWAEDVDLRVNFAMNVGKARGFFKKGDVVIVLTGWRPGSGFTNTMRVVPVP

Biological target: Pyruvate kinase PKM (Homo sapiens) (UniProt P14618)
Experiment: Secondary assay for Inhibitors of Human Pyruvate Kinase M2 isoform
Conditions: purified hPK-M2, LDH-coupled NADH fluorescence kinetic; activity change, negative = inhibition: at 57.5 µM (top of the series)
From the text: NIH Chemical Genomics Center [NCGC] Matthew G. Vander Heiden, M.D., Ph.D. [Harvard Medical School, 77 Avenue Louis Pasteur, Boston, MA 02115] MLPCN Grant: 1 R03 MH085679-01 NCGC Assay Overview: Human pyruvate kinase muscle 2 (hPK-M2)enzyme was supplied as a highly purified (>95% pure) preparation from Harvard Medical School and a secondary assay was used to evaluate compounds. This assay couples the formation of pyruvate from hPK-M2 using lactate dehydrogenase (LDH) and NADH. The depletion of NADH is followed in a fluorescent-based kinetic assay that follows the formation of pyruvate to lactate, as catalyzed LDH (described by Hannaert et al., 2002)1 Pyruvate kinase substrates, PEP and ADP, were present in the assay at 0.1 mM and 4 mM respectively. In this kinetic assay initial rates were determined by following the fluorescence of NADH depletion.
NCGC Assay Protocol Summary: Three uL of substrate mix (final concentration, 50 mM Tris-Cl pH 8.0, 200 mM KCl, 15 mM MgCl2, 0.1 mM PEP, 4.0 mM ADP, and 0.2 mM NADH) was dispensed into black-solid 1536 well plates. 23 nL of compounds were delivered by a pin tool and 1 uL of enzyme mix (final concentrations, 10 nM hPK-M2 and 1 uM of LDH) was added. Plates were immediately placed in ViewLux (Perkin Elmer) and NADH fluorescence was determined at 30 second exposure intervals for between 3 and 6 minutes. Data were normalized to the basal signal.

Structure (SMILES)	Potency	activity change, negative = inhibition
Cc1ccc(Nc2c(-c3ccc(C)o3)nc3ccccn23)cc1	active: 4.61 µM	
Cc1ccc(-c2nc3ccccn3c2Nc2ccc(F)cc2)o1	active: 7.3 µM	
COc1ccc(-c2nc3cccc(C)n3c2Nc2ccc(C)cc2)cc1	inconclusive: 46.1 µM [inhibitor, single point]	
Cc1ccc(-c2nc3ccccn3c2Nc2ccccc2C)o1	active: 4.61 µM	
CCOc1ccc(NC(=O)Nc2ccccc2C(N)=O)cc1		inactive: -1.54%
Cc1ccc2nc(-c3ccc(C)o3)c(Nc3ccc(F)cc3)n2c1	inconclusive: 1.46 µM [falling, full curve]	
Cc1ccccc1Nc1c(-c2ccccc2)nc2cccc(C)n12	inconclusive: 1.83 µM [inhibitor, full curve, poor fit]	
Cc1ccc(Nc2c(-c3ccsc3)nc3c(C)cccn23)cc1	inconclusive: 7.3 µM [falling, partial curve]	
Cc1ccc(Nc2c(-c3ccsc3)nc3cccc(C)n23)cc1		inconclusive: 76.3% [inhibitor]
Cc1ccc2nc(-c3ccc(C)o3)c(Nc3ccc4c(c3)OCO4)n2c1		inactive: -5.83%
COc1ccc(-c2nc3ccccn3c2Nc2ccccc2C)cc1		inactive: -27.6%
O=C1C=CC(=O)N1CCCCCCN1C(=O)C=CC1=O		inactive: -28.5%
Cc1ccccc1Nc1c(-c2ccc(Cl)s2)nc2ccccn12	inconclusive: 23.1 µM [inhibitor, partial curve, poor fit]	
Cc1ccc2nc(-c3ccc(C)o3)c(NC3CCCC3)n2c1	inconclusive: 16.3 µM [falling, partial curve]	
Cc1ccc2nc(-c3ccc(C)o3)c(Nc3ccccc3)n2c1	inconclusive: 2.31 µM [falling, full curve]	
Cc1ccn2c(NCc3ccco3)c(-c3ccccc3)nc2c1	inconclusive: 32.6 µM [inhibitor, partial curve, poor fit]	
Cc1ccc(Nc2c(-c3ccc(C)s3)nc3ccccn23)cc1	inconclusive: 7.3 µM [falling, full curve]	
Cc1ccc(Nc2c(-c3ccc(C)o3)nc3cccc(C)n23)cc1	active: 6.51 µM	
Cc1ccc(-c2nc3cccc(C)n3c2Nc2ccc(F)cc2)o1	active: 9.19 µM	
O=c1c2ccccc2sn1-c1cc(S(=O)(=O)N2CCOCC2)ccc1N1CCCC1	inconclusive: 3.66 µM [falling, partial curve]	
COc1ccc(-c2cn3ccccc3n2)cc1OC	inconclusive: 4.61 µM [falling, full curve]	
O=C1C(c2cc(=O)c3ccccc3[nH]2)=C(O)c2ccccc21	inconclusive: 5.17 µM [inhibitor, partial curve, poor fit]	
Cc1ccc2nc(-c3ccc(C)o3)c(Nc3ccc(Cl)cc3)n2c1	inconclusive: 1.16 µM [inhibitor, partial curve, poor fit]	
Cc1ccc2nc(-c3ccco3)c(Nc3ccccc3)n2c1	inconclusive: 1.83 µM [inhibitor, full curve, poor fit]	

Of the compounds above, these contain an aryl methoxy group.
Structure (SMILES)	Potency	activity change, negative = inhibition
COc1ccc(-c2nc3cccc(C)n3c2Nc2ccc(C)cc2)cc1	inconclusive: 46.1 µM [inhibitor, single point]	
COc1ccc(-c2nc3ccccn3c2Nc2ccccc2C)cc1		inactive: -27.6%
COc1ccc(-c2cn3ccccc3n2)cc1OC	inconclusive: 4.61 µM [falling, full curve]	
